Patent US20070073060A1, “Tricycle indole hydroxyethlamine derivatives and their use in the treatment of alzheimer's disease” (priority 2003, published 2007)
Some of these results come from one statement about several compounds together.

Chains of the proteins cited; added tags and fusions are not shown. Residues count along the entry.
UniProt P07339, 65-412, species assumed: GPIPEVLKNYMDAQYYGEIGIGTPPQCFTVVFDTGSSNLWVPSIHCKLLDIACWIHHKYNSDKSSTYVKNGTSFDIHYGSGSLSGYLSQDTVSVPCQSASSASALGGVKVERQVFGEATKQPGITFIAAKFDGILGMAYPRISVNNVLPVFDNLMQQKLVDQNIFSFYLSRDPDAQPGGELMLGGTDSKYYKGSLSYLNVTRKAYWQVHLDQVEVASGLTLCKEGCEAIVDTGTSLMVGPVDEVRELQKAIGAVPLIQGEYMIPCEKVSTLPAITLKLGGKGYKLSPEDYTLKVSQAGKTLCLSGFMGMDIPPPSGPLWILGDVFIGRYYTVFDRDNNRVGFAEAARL
UniProt P56817, 46-501: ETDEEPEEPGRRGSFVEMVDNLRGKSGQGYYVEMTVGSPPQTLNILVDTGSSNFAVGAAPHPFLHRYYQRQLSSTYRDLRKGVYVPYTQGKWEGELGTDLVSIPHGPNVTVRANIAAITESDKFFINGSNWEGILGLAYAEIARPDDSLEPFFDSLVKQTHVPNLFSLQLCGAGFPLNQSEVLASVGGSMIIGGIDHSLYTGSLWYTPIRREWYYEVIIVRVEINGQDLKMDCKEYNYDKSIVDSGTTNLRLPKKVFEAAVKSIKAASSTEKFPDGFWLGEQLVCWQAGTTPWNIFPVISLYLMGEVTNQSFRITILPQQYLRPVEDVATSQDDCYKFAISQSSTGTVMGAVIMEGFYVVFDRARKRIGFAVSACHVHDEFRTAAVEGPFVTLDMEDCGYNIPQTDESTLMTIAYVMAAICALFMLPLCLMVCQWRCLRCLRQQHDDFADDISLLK

Assays:
Cathepsin D = Cathepsin D (Homo sapiens, UniProt P07339); assay: Cathepsin D Inhibitory Assay; assay type: biochemical; conditions: Assay (II); FAM-SEVNLDAEFK-TAMRA substrate, pH 4.5, 1 h room temperature; range over all examples, units printed in the value (nM to >μM); read-out: inhibition (CatD)
Asp2 = Asp2 (Homo sapiens, UniProt P56817); assay: Asp-2 Inhibitory Assay; assay type: biochemical; conditions: Assay (I); FAM-SEVNLDAEFK-TAMRA substrate, pH 4.5, 1 h room temperature; range over all examples, units printed in the value (nM to μM)

| Compound | IC50 (Cathepsin D) [nM] | inhibition (Asp2) (Asp2) |
| --- | --- | --- |
| CCn1cc2c3c(cc(C(=O)N[C@@H](Cc4ccccc4)[C@H](O)CNCc4ccccc4)cc31)N(C)S(=O)(=O)CC2.O=CO [Example E6, Formic acid - 6-Ethyl-N-{(1S, 2R)-2-hydroxy-1-(phenylmethyl)-3-[(phenylmethyl)amino]propyl}-1-methyl-1,3,4,6-tetrahydro[1,2]thiazepino[5,4,3-cd]indole-8-carboxamide 2,2-dioxide (1:1)] | ≥ 30 | 2 nM-10 μM |
| CCn1cc2c3c(cc(C(=O)N[C@@H](Cc4ccccc4)[C@H](O)CNC4CCCCCC4)cc31)N(C)S(=O)(=O)CC2 [Example E43, N-[(1S, 2R)-3-(Cycloheptylamino)-2-hydroxy-1-(phenylmethyl)propy]-6-ethyl-1-methyl-1,3,4,6-tetrahydro[1,2]thiazepino[5,4,3-cd]indole-8-carboxamide 2,2-dioxide] | ≥ 30 | 2 nM-10 μM |
| CCCC(CCC)NC[C@@H](O)[C@H](Cc1ccccc1)NC(=O)c1cc2c3c(cn(CC)c3c1)CCS(=O)(=O)N2C.O=CO [Example E25, Formic acid - 6-Ethyl-N-{(1S, 2R)-2-hydroxy-1-(phenylmethyl)-3-[(1-propylbutyl)amino]propyl}-1-methyl-1,3,4,6-tetrahydro[1,2]thiazepino[5,4,3-cd]indole-8-carboxamide 2,2-dioxide (1:1)] | ≥ 30 | 2 nM-10 μM |
| CCC#CCNC[C@@H](O)[C@H](Cc1ccccc1)NC(=O)c1cc2c3c(cn(CC)c3c1)CCS(=O)(=O)N2C.O=CO [Example E85, Formic acid - 6-Ethyl-N-[(1S, 2R)-2-hydroxy-3-(2-pentyn-1-ylamino)-1-(phenylmethyl)propyl]-1-methyl-1,3,4,6-tetrahydro[1,2]thiazepino[5,4,3-cd]indole-8-carboxamide 2,2-dioxide (1:1)] | ≥ 30 | 2 nM-10 μM |
| CCn1cc2c3c(cc(C(=O)N[C@@H](Cc4ccccc4)[C@H](O)CNC4(C)CCCCC4)cc31)N(C)S(=O)(=O)CC2.O=CO [Example E49, Formic acid - 6-Ethyl-N-[(1S, 2R)-2-hydroxy-3-[(1-methylcyclohexyl)amino]-1-(phenylmethyl)propyl]-1-methyl-1,3,4,6-tetrahydro[1,2]thiazepino[5,4,3-cd]indole-8-carboxamide 2,2-dioxide (1:1)] | ≥ 30 | 2 nM-10 μM |
| CCN1c2cc(C(=O)N[C@@H](Cc3ccccc3)[C@H](O)CNCc3cccc(OC)c3)cc3c2c(cn3CC)C=CS1(=O)=O [Example E2, 1,6-Diethyl-N-[(1S, 2R)-2-hydroxy-3-({[3-(methyloxy)phenyl]methyl}amino)-1-(phenylmethyl)propyl]-1,6-dihydro[1,2]thiazepino[5,4,3-cd]indole-8-carboxamide 2,2-dioxide] | ≥ 30 | 2 nM-10 μM |
| CCn1cc2c3c(cc(C(=O)N[C@@H](Cc4ccccc4)[C@H](O)CNc4cccc(OC)c4OC)cc31)N(C)S(=O)(=O)CC2.O=CO [Example E76, Formic acid - N-[(1S, 2R)-3-{[2,3-Bis(methyloxy)phenyl]amino}-2-hydroxy-1-(phenylmethyl)propyl]-6-ethyl-1-methyl-1,3,4,6-tetrahydro[1,2]thiazepino[5,4,3-cd]indole-8-carboxamide 2,2-dioxide (1:1)] | ≥ 30 | 2 nM-10 μM |
| CCn1cc2c3c(cc(C(=O)N[C@@H](Cc4ccccc4)[C@H](O)CNc4cccc(Cl)c4)cc31)N(C)S(=O)(=O)CC2.O=CO [Example E63, Formic acid - N-[(1S, 2R)-3-[(3-Chlorophenyl)amino]-2-hydroxy-1-(phenylmethyl)propyl]-6-ethyl-1-methyl-1,3,4,6-tetrahydro[1,2]thiazepino[5,4,3-cd]indole-8-carboxamide 2,2-dioxide (1:1)] | ≥ 30 | 2 nM-10 μM |
| CCn1cc2c3c(cc(C(=O)N[C@@H](Cc4ccccc4)[C@H](O)CNCCSC)cc31)N(C)S(=O)(=O)CC2 [Example E39, 6-Ethyl-N-[(1S, 2R)-2-hydroxy-3-{[2-(methylthio)ethyl]amino}-1-(phenylmethyl)propyl]-1-methyl-1,3,4,6-tetrahydro[1,2]thiazepino[5,4,3-cd]indole-8-carboxamide 2,2-dioxide] | ≥ 30 | 2 nM-10 μM |
| CCn1cc2c3c(cc(C(=O)N[C@@H](Cc4ccccc4)[C@H](O)CNCCC4CCCCC4)cc31)N(C)S(=O)(=O)CC2.O=CO [Example E40, Formic acid - N-[(1S, 2R)-3-[(2-Cyclohexylethyl)amino]-2-hydroxy-1-(phenylmethyl)propyl]-6-ethyl-1-methyl-1,3,4,6-tetrahydro[1,2]thiazepino[5,4,3-cd]indole-8-carboxamide 2,2-dioxide (1:1)] | ≥ 30 | 2 nM-10 μM |
| CCn1cc2c3c(cc(C(=O)N[C@@H](Cc4ccccc4)[C@H](O)CNC(C)(C)CCCC(C)C)cc31)N(C)S(=O)(=O)CC2.O=CO [Example E74, Formic acid - 6-Ethyl-N-{(1S, 2R)-2-hydroxy-1-(phenylmethyl)-3-[(1,1,5-trimethylhexyl)amino]propyl}-1-methyl-1,3,4,6-tetrahydro[1,2]thiazepino[5,4,3-cd]indole-8-carboxamide 2,2-dioxide (1:1)] | ≥ 30 | 2 nM-10 μM |
| CCn1cc2c3c(cc(C(=O)N[C@@H](Cc4ccccc4)[C@H](O)CNC4C(C)(C)CCCC4(C)C)cc31)N(C)S(=O)(=O)CC2.O=CO [Example E37, Formic acid - 6-Ethyl-N-{(1S, 2R)-2-hydroxy-1-(phenylmethyl)-3-[(2,2,6,6-tetramethylcyclohexyl)amino]propyl}-1-methyl-1,3,4,6-tetrahydro[1,2]thiazepino[5,4,3-cd]indole-8-carboxamide 2,2-dioxide (1:1)] | ≥ 30 | 2 nM-10 μM |
| CCn1cc2c3c(cc(C(=O)N[C@@H](Cc4ccccc4)[C@H](O)CNC4CC=CC4)cc31)N(C)S(=O)(=O)CC2.O=CO [Example E21, Formic acid - N-[(1S, 2R)-3-(3-Cyclopenten-1-ylamino)-2-hydroxy-1-(phenylmethyl)propyl]-6-ethyl-1-methyl-1,3,4,6-tetrahydro[1,2]thiazepino[5,4,3-cd]indole-8-carboxamide 2,2-dioxide (1:1)] | ≥ 30 | 2 nM-10 μM |
| CCn1cc2c3c(cc(C(=O)N[C@@H](Cc4ccccc4)[C@H](O)CNCCOC)cc31)N(C)S(=O)(=O)CC2.O=CO [Example E16, Formic acid - 6-Ethyl-N-[(1S, 2R)-2-hydroxy-3-{[2-(methyloxy)ethyl]amino}-1-(phenylmethyl)propyl]-1-methyl-1,3,4,6-tetrahydro[1,2]thiazepino[5,4,3-cd]indole-8-carboxamide 2,2-dioxide (1:1)] | ≥ 30 | 2 nM-10 μM |
| CCn1cc2c3c(cc(C(=O)N[C@@H](Cc4ccccc4)[C@H](O)CNC4(CC)CC4)cc31)N(C)S(=O)(=O)CC2.O=CO [Example E84, Formic acid - 6-Ethyl-N-[(1S, 2R)-3-[(1-ethylcyclopropyl)amino]-2-hydroxy-1-(phenylmethyl)propyl]-1-methyl-1,3,4,6-tetrahydro[1,2]thiazepino[5,4,3-cd]indole-8-carboxamide 2,2-dioxide (1:1)] | ≥ 30 | 2 nM-10 μM |
| CCC(CC)CNC[C@@H](O)[C@H](Cc1ccccc1)NC(=O)c1cc2c3c(cn(CC)c3c1)CCS(=O)(=O)N2C.O=CO [Example E35, Formic acid - 6-Ethyl-N-[(1S, 2R)-3-[(2-ethylbutyl)amino]-2-hydroxy-1-(phenylmethyl)propyl]-1-methyl-1,3,4,6-tetrahydro[1,2]thiazepino[5,4,3-cd]indole-8-carboxamide 2,2-dioxide (1:1)] | ≥ 30 | 2 nM-10 μM |
| CCn1cc2c3c(cc(C(=O)N[C@@H](Cc4ccccc4)[C@H](O)CNc4ccccc4C)cc31)N(C)S(=O)(=O)CC2.O=CO [Example E56, Formic acid - 6-Ethyl-N-[(1S, 1R)-2-hydroxy-3-[(2-methylphenyl)amino]-1-(phenylmethyl)propyl]-1-methyl-1,3,4,6-tetrahydro[1,2]thiazepino[5,4,3-cd]indole-8-carboxamide 2,2-dioxide (1:1)] | ≥ 30 | 2 nM-10 μM |
| CCn1cc2c3c(cc(C(=O)N[C@@H](Cc4ccccc4)[C@H](O)CNc4ccccc4Cl)cc31)N(C)S(=O)(=O)CC2.O=CO [Example E60, Formic acid - N-[(1S, 2R)-3-[(2-Chlorophenyl)amino]-2-hydroxy-1-(phenylmethyl)propyl]-6-ethyl-1-methyl-1,3,4,6-tetrahydro[1,2]thiazepino[5,4,3-cd]indole-8-carboxamide 2,2-dioxide (1:1)] | ≥ 30 | 2 nM-10 μM |
| CCn1cc2c3c(cc(C(=O)N[C@@H](Cc4ccccc4)[C@H](O)CNC4CCC(F)(F)CC4)cc31)N(C)S(=O)(=O)CC2.O=CO [Example E12, Formic acid - N-[(1S, 2R)-3-[(4,4-Difluorocyclohexyl)amino]-2-hydroxy-1-(phenylmethyl)propyl]-6-ethyl-1-methyl-1,3,4,6-tetrahydro[1,2]thiazepino[5,4,3-cd]indole-8-carboxamide 2,2-dioxide (1:1)] | ≥ 30 | 2 nM-10 μM |
| CCn1cc2c3c(cc(C(=O)N[C@@H](Cc4ccccc4)[C@H](O)CNCc4ccccn4)cc31)N(C)S(=O)(=O)CC2.O=CO [Example E82, Formic acid - 6-Ethyl-N-{(1S, 2R)-2-hydroxy-1-(phenylmethyl)-3-[(2-pyridinylmethyl)amino]propyl}-1-methyl-1,3,4,6-tetrahydro[1,2]thiazepino[5,4,3-cd]indole-8-carboxamide 2,2-dioxide (1:1)] | ≥ 30 | 2 nM-10 μM |
